PubChem BioAssay AID1259254 | NCATS | 2017

- Test: 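Finding genes that stop cells copying their DNA twice in one cycle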 (primary screen)
- Cells: human HCT116 colorectal cancer cells
- Reagent: single siRNA against human genes
- Timing: 3 days
- Measured: 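Nuclei stained with Hoechst and imaged; cell-cycle phase assigned by DNA content; G2 share scaled per plate, non-targeting siRNA 0%, GMNN siRNA 100%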
- Direction: G2 robust z-score and G2 cells, % of GMNN control: higher = more G2 cells, more excess DNA replication; raw share of cells in G2: higher = larger share of cells with G2 DNA content
- Active means: 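Active siRNAs have a G2 robust z of 5 or more median absolute deviations over the median, which in these data means about 38% or higher of GMNN control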
Here is an unselected part of about 59,000 reagents. Of all reagents, about 1,550 (2.6%) were called active. 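G2 share is only a proxy for re-replication; each gene was hit by three separate siRNAs, and active genes were retested.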 Raw values are not corrected between plates. The numbers tell different reagents against one gene apart. The record does not give: the amount of reagent.

gene knocked down | reagent | G2 robust z-score | G2 cells, % of GMNN control | raw share of cells in G2 (%) | Call
C5AR2 | 1 | 1.44 | 13.1 | 10.5 | inactive
C5AR2 | 2 | 0.235 | 4.62 | 6.13 | inactive
C5AR2 | 3 | -1.22 | -5.6 | 1.55 | inactive
LRRN1 | 1 | 3.64 | 28.6 | 14.6 | inactive
LRRN1 | 2 | 3.64 | 28.5 | 17.5 | inactive
LRRN1 | 3 | 0.227 | 4.56 | 5.96 | inactive
IRX2 | 1 | 3.28 | 26 | 15.6 | inactive
IRX2 | 2 | 1.14 | 11 | 8.72 | inactive
IRX2 | 3 | -0.995 | -4.03 | 4.03 | inactive
AGBL1 | 1 | 1.9 | 16.3 | 10.6 | inactive
AGBL1 | 2 | 3.74 | 29.3 | 12.1 | inactive
AGBL1 | 3 | -0.91 | -3.43 | 0.815 | inactive
PGM3 | 1 | -0.444 | -0.156 | 4.74 | inactive
PGM3 | 2 | 0.956 | 9.69 | 7.22 | inactive
PGM3 | 3 | 0.314 | 5.17 | 5.05 | inactive
SDHB | 1 | 3.23 | 25.7 | 12.5 | inactive
SDHB | 2 | -0.0994 | 2.27 | 5.32 | inactive
SDHB | 3 | 1.78 | 15.5 | 10.9 | inactive
BLTP2 | 1 | 0.0366 | 3.22 | 6.79 | inactive
BLTP2 | 2 | 1.22 | 11.6 | 8.78 | inactive
BLTP2 | 3 | 0.301 | 5.08 | 5.26 | inactive
CYC1 | 1 | 3.03 | 24.3 | 13.9 | inactive
CYC1 | 2 | 1.96 | 16.8 | 9.88 | inactive
CYC1 | 3 | 1.07 | 10.5 | 8.71 | inactive
ZNF763 | 1 | -1.07 | -4.59 | 1.51 | inactive
ZNF763 | 2 | 1.74 | 15.2 | 8.44 | inactive
ZNF763 | 3 | -0.794 | -2.62 | 2.61 | inactive
IL17RB | 1 | -0.413 | 0.0643 | 6.46 | inactive
IL17RB | 2 | -1.22 | -5.62 | 2.42 | inactive
IL17RB | 3 | -0.583 | -1.13 | 3.86 | inactive
PHLDB3 | 1 | 0.915 | 9.41 | 7.07 | inactive
PHLDB3 | 2 | 0.893 | 9.25 | 6.62 | inactive
PHLDB3 | 3 | 0.177 | 4.21 | 4.55 | inactive
PHLDB3 | 4 | 1.68 | 14.8 | 9.75 | inactive
PHLDB3 | 5 | 1.42 | 12.9 | 7.95 | inactive
PHLDB3 | 6 | 1.47 | 13.3 | 6.73 | inactive
DUSP1 | 1 | 2.4 | 19.8 | 11.2 | inactive
DUSP1 | 2 | 1.57 | 14 | 8.52 | inactive
DUSP1 | 3 | 0.477 | 6.33 | 5.4 | inactive
AHCTF1 | 1 | 0.253 | 4.75 | 4.47 | inactive
AHCTF1 | 2 | -0.35 | 0.506 | 6.14 | inactive
AHCTF1 | 3 | 0.576 | 7.02 | 5.84 | inactive
NRG4 | 1 | -0.0751 | 2.44 | 3.92 | inactive
NRG4 | 2 | 3.19 | 25.4 | 12.3 | inactive
NRG4 | 3 | 0.153 | 4.04 | 4.16 | inactive
LHFPL7 | 1 | -0.305 | 0.819 | 3.41 | inactive
LHFPL7 | 2 | 0.43 | 5.99 | 5.11 | inactive
LHFPL7 | 3 | 1.92 | 16.5 | 9.56 | inactive
MUC21 | 1 | -0.327 | 0.67 | 4.05 | inactive
MUC21 | 2 | 0.56 | 6.91 | 6.26 | inactive
MUC21 | 3 | -0.0477 | 2.63 | 5.88 | inactive
NR5A1 | 1 | 1.67 | 14.7 | 10.6 | inactive
NR5A1 | 2 | -0.135 | 2.02 | 5.24 | inactive
NR5A1 | 3 | 0.361 | 5.5 | 5.78 | inactive
PCED1B | 1 | -0.581 | -1.12 | 3.61 | inactive
PCED1B | 2 | -0.474 | -0.366 | 2.89 | inactive
PCED1B | 3 | 0.269 | 4.86 | 4.47 | inactive
LINC00205 | 1 | -0.148 | 1.93 | 4.37 | inactive
LINC00205 | 2 | 1.31 | 12.2 | 7.66 | inactive
LINC00205 | 3 | 2.47 | 20.4 | 9.08 | inactive
MTHFD2L | 1 | 0.525 | 6.66 | 6.19 | inactive
MTHFD2L | 2 | 0.175 | 4.2 | 5.01 | inactive
MTHFD2L | 3 | -1.08 | -4.64 | 1.54 | inactive
ZNF962P | 1 | 0.761 | 8.32 | 7.36 | inactive
ZNF962P | 2 | 0.228 | 4.57 | 4.76 | inactive
ZNF962P | 3 | 1.97 | 16.9 | 9.33 | inactive
MBOAT4 | 1 | -0.636 | -1.51 | 3.04 | inactive
MBOAT4 | 2 | -0.579 | -1.1 | 3 | inactive
MBOAT4 | 3 | -0.693 | -1.91 | 2.47 | inactive
XYLB | 1 | -1.15 | -5.15 | 3.99 | inactive
XYLB | 2 | -1.15 | -5.11 | 2.05 | inactive
XYLB | 3 | 0.683 | 7.77 | 8.02 | inactive
HMCN1 | 1 | 2.29 | 19.1 | 13.4 | inactive
HMCN1 | 2 | -0.258 | 1.15 | 4.61 | inactive
HMCN1 | 3 | -1.09 | -4.7 | 3.04 | inactive
APOL4 | 1 | -0.92 | -3.5 | 3.97 | inactive
APOL4 | 2 | -0.0925 | 2.32 | 5.03 | inactive
APOL4 | 3 | 0.967 | 9.77 | 8.4 | inactive
PUDP | 1 | -1.14 | -5.06 | 3.15 | inactive
PUDP | 2 | 2.2 | 18.4 | 9.05 | inactive
PUDP | 3 | 0.0731 | 3.48 | 5.35 | inactive
EIF1AY | 1 | -0.28 | 0.996 | 5.06 | inactive
EIF1AY | 2 | -1.11 | -4.87 | 3.55 | inactive
EIF1AY | 3 | 1.94 | 16.6 | 12.1 | inactive
SP140 | 1 | 3.28 | 26.1 | 12.8 | inactive
SP140 | 2 | 1.07 | 10.5 | 10.6 | inactive
SP140 | 3 | -0.784 | -2.55 | 3.3 | inactive

Just “raw share of cells in G2 (%)”, for 12 of the entries above:
XYLB #3: 8.02
HMCN1 #1: 13.4
HMCN1 #2: 4.61
HMCN1 #3: 3.04
APOL4 #1: 3.97
APOL4 #2: 5.03
APOL4 #3: 8.4
PUDP #1: 3.15
PUDP #2: 9.05
PUDP #3: 5.35
EIF1AY #1: 5.06
EIF1AY #2: 3.55
